Patent US20140050719A1
These are yes or no findings as the source states them, for the method shown. Some entries that bind do so weakly or less than the wild type.

Sequences of proteins named here, by UniProt entry; tags and fusion partners are left off. Residues count along the entry.
UniProt P05067, residues 672-711: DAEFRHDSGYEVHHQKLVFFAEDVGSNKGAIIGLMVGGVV

Biological target: human Aβ peptide (form not stated) (human) (UniProt P05067)
Experiment: ELISA with supernatants of transiently transfected CHOK1 cells

binding	Binder
binds	2E7 humanised variant H1L1 (antibody, human IgG1, kappa, V domains shown) VH: EVQLVESGGGLVQPGGSLRLSCAASGFTFSDNGMAWVRQAPGKGLEWVSFISNLAYSIDYADTVTGRFTISRDNAKNSLYLQMNSLRAEDTAVYYCVSGTWFAYWGQGTLVTVSS VL: DIVMTQSPLSLPVTPGEPASISCRVSQSLLHSNGYTYLHWYLQKPGQSPQLLIYKVSNRFSGVPDRFSGSGSGTDFTLKISRVEAEDVGVYYCSQTRHVPYTFGGGTKVEIKR
binds	2E7 humanised variant H2L1 (antibody, human IgG1, kappa, V domains shown) VH: EVQLVESGGGLVQPGGSLRLSCAVSGFTFSDNGMAWVRQAPGKGLEWVSFISNLAYSIDYADTVTGRFTISRDNAKNSLYLQMNSLRAEDTAVYYCVSGTWFAYWGQGTLVTVSS VL: DIVMTQSPLSLPVTPGEPASISCRVSQSLLHSNGYTYLHWYLQKPGQSPQLLIYKVSNRFSGVPDRFSGSGSGTDFTLKISRVEAEDVGVYYCSQTRHVPYTFGGGTKVEIKR
binds	2E7 humanised variant H3L1 (antibody, human IgG1, kappa, V domains shown) VH: EVQLVESGGGLVQPGGSLRLSCAASGFTFSDNGMAWVRQAPGKGLEWISFISNLAYSIDYADTVTGRFTISRDNAKNSLYLQMNSLRAEDTAVYYCVSGTWFAYWGQGTLVTVSS VL: DIVMTQSPLSLPVTPGEPASISCRVSQSLLHSNGYTYLHWYLQKPGQSPQLLIYKVSNRFSGVPDRFSGSGSGTDFTLKISRVEAEDVGVYYCSQTRHVPYTFGGGTKVEIKR
